# These are yes or no findings as the source states them, for the method shown. A result given as binding can be weak or reduced; the word gives no strength.
# Protein sequences, listed by entry. Tags and fused reporters are not part of them. Lines headed by an entry give the natural chain unless they say otherwise; changes in a name come on top.
# UniProt Q9HB75: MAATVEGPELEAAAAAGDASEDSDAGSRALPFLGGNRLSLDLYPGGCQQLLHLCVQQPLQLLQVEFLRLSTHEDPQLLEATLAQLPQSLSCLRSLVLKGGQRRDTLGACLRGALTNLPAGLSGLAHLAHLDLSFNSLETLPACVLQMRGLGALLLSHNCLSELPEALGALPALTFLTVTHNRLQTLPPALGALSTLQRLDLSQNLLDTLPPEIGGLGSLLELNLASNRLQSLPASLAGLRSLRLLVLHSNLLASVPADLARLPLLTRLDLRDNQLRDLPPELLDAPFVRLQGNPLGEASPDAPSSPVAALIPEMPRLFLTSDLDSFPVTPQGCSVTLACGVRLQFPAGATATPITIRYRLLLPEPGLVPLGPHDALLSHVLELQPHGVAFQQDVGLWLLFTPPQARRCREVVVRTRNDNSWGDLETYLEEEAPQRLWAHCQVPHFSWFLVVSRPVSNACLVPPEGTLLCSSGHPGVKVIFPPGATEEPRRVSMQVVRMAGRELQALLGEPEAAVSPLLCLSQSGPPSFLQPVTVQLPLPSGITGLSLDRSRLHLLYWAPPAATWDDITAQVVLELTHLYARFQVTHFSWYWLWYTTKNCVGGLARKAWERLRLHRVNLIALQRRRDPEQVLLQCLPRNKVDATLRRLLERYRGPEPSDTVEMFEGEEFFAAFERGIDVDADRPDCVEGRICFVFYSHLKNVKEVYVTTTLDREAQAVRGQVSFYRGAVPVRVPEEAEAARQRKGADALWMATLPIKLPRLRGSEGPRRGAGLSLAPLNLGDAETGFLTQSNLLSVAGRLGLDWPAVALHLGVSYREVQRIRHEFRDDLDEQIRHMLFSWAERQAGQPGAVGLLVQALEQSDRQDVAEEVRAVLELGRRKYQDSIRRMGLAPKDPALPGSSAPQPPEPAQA
# UniProt P78560: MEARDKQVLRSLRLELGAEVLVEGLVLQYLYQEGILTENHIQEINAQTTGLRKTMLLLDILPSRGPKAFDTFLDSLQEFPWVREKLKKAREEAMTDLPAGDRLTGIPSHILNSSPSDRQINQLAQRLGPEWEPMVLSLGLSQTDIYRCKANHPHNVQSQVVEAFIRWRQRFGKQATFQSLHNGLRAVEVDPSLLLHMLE
# Target: death domain of PIDD1 (PIDD1-DD) (human) (UniProt Q9HB75)
# Assay: SEC; complex of the three proteins co-expressed in E. coli and purified, loaded on a Superdex 200 10/300 GL column, eluted with 20 mmol/L Tris-HCl pH 8.0, 150 mmol/L NaCl, 1 mmol/L TCEP; fractions analysed by SDS-PAGE; both purified
substance,measurement,value
RAIDD (from UniProt P78560 1-199),binding,binds
